Paper PMC7408725
Results are given in words; binding and its absence hold for the method and conditions named. In cells and extracts the contact can be indirect. Some binding calls cover weakened binding; strength is not graded here.

Target: Smad3 (human (endogenous in HPL1A)), P84022
Experiment: co-IP; lysate (1 mg protein) of cells transfected with miR-216b mimic or control miRNA mimic and treated with 5 ng/mL TGF-β1 for 1 h; anti-Smad3 antibody or rabbit IgG with protein A agarose beads, 4 °C overnight; Western blot with anti-Smad4 and anti-Smad3
Conditions: remark: other sources report otherwise

B1: Smad4, Q13485 1-552 (protein)
chain: MDNMSITNTPTSNDACLSIVHSLMCHRQGGESETFAKRAIESLVKKLKEKKDELDSLITAITTNGAHPSKCVTIQRTLDGRLQVAGRKGFPHVIYARLWRWPDLHKNELKHVKYCQYAFDLKCDSVCVNPYHYERVVSPGIDLSGLTLQSNAPSSMMVKDEYVHDFEGQPSLSTEGHSIQTIQHPPSNRASTETYSTPALLAPSESNATSTANFPNIPVASTSQPASILGGSHSEGLLQIASGPQPGQQQNGFTGQPATYHHNSTTTWTGSRTAPYTPNLPHHQNGHLQHHPPMPPHPGHYWPVHNELAFQPPISNHPAPEYWCSIAYFEMDVQVGETFKVPSSCPIVTVDGYVDPSGGDRFCLGQLSNVHRTEAIERARLHIGKGVQLECKGEGDVWVRCLSDHAVFVQSYYLDREAGRAPGDAVHKIYPSAYIKVFDLRQCHRQMQQQAATAQAAAAAQAAAVAGNIPGPGSVGGIAPAISLSAAAGIGVDDLRRLCILRMSFVKGWGPDYPRQSIKETPCWIEIHLHRALQLLDEVLHTMPIADPQPLD
  binding: binds
